Assay results taken from publication PMC8490708.
No constants are given. Whether binding was seen depends on the method and setting. In cells and extracts the contact can be indirect. Some entries that bind do so weakly or less than the wild type. For some assays here: Sequences can lack the tags named with a protein. Values belong to the binder of their own block, whether it stands above or below them.

Tests used:
[1] = molecular target: T1, CBX4-YFP (human) (UniProt O00257); assay: pull-down; GFP-Trap co-pulldown: YFP-tagged bait and HA-tagged prey co-transfected in HEK 293FT cells; lysate (150 mM NaCl, 1% NP-40, 0.5% Triton X-100) with GFP-Trap resin overnight at 4°C; washes with 300 mM NaCl; Western blot
T1 sequence: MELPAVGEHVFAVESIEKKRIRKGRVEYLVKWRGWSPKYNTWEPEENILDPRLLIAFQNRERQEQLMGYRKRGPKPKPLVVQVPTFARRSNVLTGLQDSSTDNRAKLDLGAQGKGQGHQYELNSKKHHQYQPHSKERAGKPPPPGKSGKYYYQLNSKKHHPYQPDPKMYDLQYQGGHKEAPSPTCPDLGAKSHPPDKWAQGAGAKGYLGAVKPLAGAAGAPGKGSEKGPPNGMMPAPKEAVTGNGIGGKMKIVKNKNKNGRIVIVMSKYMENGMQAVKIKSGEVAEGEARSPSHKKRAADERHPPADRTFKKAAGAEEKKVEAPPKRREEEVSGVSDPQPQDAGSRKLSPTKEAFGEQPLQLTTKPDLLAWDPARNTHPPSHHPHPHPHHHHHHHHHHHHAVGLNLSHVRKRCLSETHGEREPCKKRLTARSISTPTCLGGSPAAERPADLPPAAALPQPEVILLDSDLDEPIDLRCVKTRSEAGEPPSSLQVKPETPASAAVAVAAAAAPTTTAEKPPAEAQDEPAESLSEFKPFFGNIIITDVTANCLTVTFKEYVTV

[2] = molecular target: T2, CBX4 (endogenous, U2OS) (human (endogenous in U2OS)) (UniProt O00257); assay: proximity ligation; Duolink In Situ Red PLA in U2OS cells transfected with CMV-SALL1-2xHA (pcDNA3 as control); mouse anti-SALL1 and rabbit anti-CBX4 primary antibodies; spots counted per cell
T2 sequence: T1 sequence

binding [1]: binds
B1: SALL1-2xHA (protein, UniProt Q9NSC2 1-1324)
chain: MSRRKQAKPQHFQSDPEVASLPRRDGDTEKGQPSRPTKSKDAHVCGRCCAEFFELSDLLLHKKNCTKNQLVLIVNENPASPPETFSPSPPPDNPDEQMNDTVNKTDQVDCSDLSEHNGLDREESMEVEAPVANKSGSGTSSGSHSSTAPSSSSSSSSSSGGGGSSSTGTSAITTSLPQLGDLTTLGNFSVINSNVIIENLQSTKVAVAQFSQEARCGGASGGKLAVPALMEQLLALQQQQIHQLQLIEQIRHQILLLASQNADLPTSSSPSQGTLRTSANPLSTLSSHLSQQLAAAAGLAQSLASQSASISGVKQLPPIQLPQSSSGNTIIPSNSGSSPNMNILAAAVTTPSSEKVASSAGASHVSNPAVSSSSSPAFAISSLLSPASNPLLPQQASANSVFPSPLPNIGTTAEDLNSLSALAQQRKSKPPNVTAFEAKSTSDEAFFKHKCRFCAKVFGSDSALQIHLRSHTGERPFKCNICGNRFSTKGNLKVHFQRHKEKYPHIQMNPYPVPEHLDNIPTSTGIPYGMSIPPEKPVTSWLDTKPVLPTLTTSVGLPLPPTLPSLIPFIKTEEPAPIPISHSATSPPGSVKSDSGGPESATRNLGGLPEEAEGSTLPPSGGKSEESGMVTNSVPTASSSVLSSPAADCGPAGSATTFTNPLLPLMSEQFKAKFPFGGLLDSAQASETSKLQQLVENIDKKATDPNECIICHRVLSCQSALKMHYRTHTGERPFKCKICGRAFTTKGNLKTHYSVHRAMPPLRVQHSCPICQKKFTNAVVLQQHIRMHMGGQIPNTPVPDSYSESMESDTGSFDEKNFDDLDNFSDENMEDCPEGSIPDTPKSADASQDSLSSSPLPLEMSSIAALENQMKMINAGLAEQLQASLKSVENGSIEGDVLTNDSSSVGGDMESQSAGSPAISESTSSMQALSPSNSTQEFHKSPSIEEKPQRAVPSEFANGLSPTPVNGGALDLTSSHAEKIIKEDSLGILFPFRDRGKFKNTACDICGKTFACQSALDIHYRSHTKERPFICTVCNRGFSTKGNLKQHMLTHQMRDLPSQLFEPSSNLGPNQNSAVIPANSLSSLIKTEVNGFVHVSPQDSKDTPTSHVPSGPLSSSATSPVLLPALPRRTPKQHYCNTCGKTFSSSSALQIHERTHTGEKPFACTICGRAFTTKGNLKVHMGTHMWNSTPARRGRRLSVDGPMTFLGGNPVKFPEMFQKDLAARSGSGDPSSFWNQYAAALSNGLAMKANEISVIQNGGIPPIPGSLGSGNSSPVSGLTGNLERLQNSEPNAPLAGLEKMASSENGTNFRFTRFVEDSKEIVTS

binding [2]: binds
B2: SALL1-2xHA (in U2OS cells) (protein, UniProt Q9NSC2 1-1324)
chain: B1 chain
